Reference: patent publication US20110144005A1, “NOVEL CYCLIC PEPTIDES” (Scynexis, Inc., priority 2009, published 2011)
Some results were stated once for a whole list of compounds, not compound by compound. At least one peptide structure holds a part that was inferred or is arguable (an end, a ring closure or a residue). Numbered stars: 1 amine (or outer) side, 2 acyl side, 3 side chain; on linkers, the order of the positions; unused ones are H or OH. Square brackets hold non-standard residues; d marks the D form. Peptide text beside a SMILES is read from it. X8 = CCOC(=O)/C=C/C[C@@H](C)[C@@H](O)[C@@H](C(=O)[*:2])N(C)[*:1]; X2 = C/C(=C\CN([C@H](C(=O)[*:2])C(C)C)[*:1])CN(C)C; MeBmt = C/C=C/C[C@@H](C)[C@@H](O)[C@H](NC)C(=O)O; X5 = CC(C)[C@@H](C(=O)[*:2])N(C/C=C/CN(C)C)[*:1]; X4 = C/C(=C\CN([C@H](C(=O)[*:2])C(C)C)[*:1])CO; X3 = CC(C)[C@@H](C(=O)[*:2])N(CCCCN(C)C)[*:1]; X1 = CC(C)[C@@H](C(=O)[*:2])N(C/C=C/CO)[*:1]; X6 = CC(C)=CCN([C@H](C(=O)[*:2])C(C)C)[*:1]; X7 = CC(C)[C@@H](C(=O)[*:2])N(CCCCO)[*:1]; NMeL = CN[C@@H](CC(C)C)C(=O)O; NMeV = CN[C@H](C(=O)O)C(C)C; dNMeA = CN[C@H](C)C(=O)O; Abu = CC[C@H](N)C(=O)O

The chains behind the UniProt entries cited, without tags or fusion partners. Residues count along the entry.
UniProt P29117, 30-206: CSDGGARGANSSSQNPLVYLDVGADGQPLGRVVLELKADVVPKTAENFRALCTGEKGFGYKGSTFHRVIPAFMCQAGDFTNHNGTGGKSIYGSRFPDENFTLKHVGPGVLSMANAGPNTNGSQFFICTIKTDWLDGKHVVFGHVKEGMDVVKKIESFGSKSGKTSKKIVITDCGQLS

These molecules were tested against mitochondria prepared from rat livers (Rattus norvegicus, UniProt P29117). Details: read-out: EC50 (mitochondrial swelling); swelling induced by 150 micro molar Ca2+, compounds added 5 minutes before, scattering at 535-540 nm.

Structure (SMILES)	EC50 [nM]
C/C=C/C[C@@H](C)[C@@H](O)[C@H]1C(=O)N[C@@H](CC)C(=O)N(C)[C@H](C)C(=O)N(C)[C@@H](CC(C)C)C(=O)N(CC=C(C)C)[C@@H](C(C)C)C(=O)N(C)[C@@H](CC(C)C)C(=O)N[C@@H](C)C(=O)N[C@H](C)C(=O)N(C)[C@@H](CC(C)C)C(=O)N(C)[C@@H](CC(C)C)C(=O)N(C)[C@@H](C(C)C)C(=O)N1C [Compound 2, [(D)-MeAla]^3-N-[trans-3-methylbut-2-enyl]-Val^5-cyclosporine A] (cyclo(A[dA][NMeL][NMeL][NMeV][MeBmt][Abu][dNMeA][NMeL][X6][NMeL]))	< 500

The molecules below were run on HCV RNA replicon ET (lub ubi neo/ET). Details: read-out: EC50 (reduction of viral replication by 50%); ET replicon cells, 72 hours, LUC activity.

Structure (SMILES)	EC50 [nM]
C/C=C/C[C@@H](C)[C@@H](O)[C@H]1C(=O)N[C@@H](CC)C(=O)N(C)[C@H](C)C(=O)N(C)[C@@H](CC(C)C)C(=O)N(CC=C(C)C)[C@@H](C(C)C)C(=O)N(C)[C@@H](CC(C)C)C(=O)N[C@@H](C)C(=O)N[C@H](C)C(=O)N(C)[C@@H](CC(C)C)C(=O)N(C)[C@@H](CC(C)C)C(=O)N(C)[C@@H](C(C)C)C(=O)N1C [Compound 2, [(D)-MeAla]^3-N-[trans-3-methylbut-2-enyl]-Val^5-cyclosporine A] (cyclo(A[dA][NMeL][NMeL][NMeV][MeBmt][Abu][dNMeA][NMeL][X6][NMeL]))	< 200
C/C=C/C[C@@H](C)[C@@H](O)[C@H]1C(=O)N[C@@H](CC)C(=O)N(C)[C@H](C)C(=O)N(C)[C@@H](CC(C)C)C(=O)N(C/C=C/CO)[C@@H](C(C)C)C(=O)N(C)[C@@H](CC(C)C)C(=O)N[C@@H](C)C(=O)N[C@H](C)C(=O)N(C)[C@@H](CC(C)C)C(=O)N(C)[C@@H](CC(C)C)C(=O)N(C)[C@@H](C(C)C)C(=O)N1C [Compound 4, [(D)-MeAla]^3-N-[trans-4-hydroxy-but-2-enyl]-Val^5-cyclosporine A] (cyclo(A[dA][NMeL][NMeL][NMeV][MeBmt][Abu][dNMeA][NMeL][X1][NMeL]))	< 200
C/C=C/C[C@@H](C)[C@@H](O)[C@H]1C(=O)N[C@@H](CC)C(=O)N(C)[C@H](C)C(=O)N(C)[C@@H](CC(C)C)C(=O)N(C/C=C(\C)CO)[C@@H](C(C)C)C(=O)N(C)[C@@H](CC(C)C)C(=O)N[C@@H](C)C(=O)N[C@H](C)C(=O)N(C)[C@@H](CC(C)C)C(=O)N(C)[C@@H](CC(C)C)C(=O)N(C)[C@@H](C(C)C)C(=O)N1C [Compound 5, [(D)-MeAla]^3-N-[trans-3-methyl-4-hydroxy-but-2-enyl]-Val^5-cyclosporine A] (cyclo(A[dA][NMeL][NMeL][NMeV][MeBmt][Abu][dNMeA][NMeL][X4][NMeL]))	< 200
C/C=C/C[C@@H](C)[C@@H](O)[C@H]1C(=O)N[C@@H](CC)C(=O)N(C)[C@H](C)C(=O)N(C)[C@@H](CC(C)C)C(=O)N(C/C=C/CN(C)C)[C@@H](C(C)C)C(=O)N(C)[C@@H](CC(C)C)C(=O)N[C@@H](C)C(=O)N[C@H](C)C(=O)N(C)[C@@H](CC(C)C)C(=O)N(C)[C@@H](CC(C)C)C(=O)N(C)[C@@H](C(C)C)C(=O)N1C [Compound 6, [(D)-MeAla]3-N-[trans-4-dimethylamino-but-2-enyl]-Val^5-cyclosporine A] (cyclo(A[dA][NMeL][NMeL][NMeV][MeBmt][Abu][dNMeA][NMeL][X5][NMeL]))	< 200
C/C=C/C[C@@H](C)[C@@H](O)[C@H]1C(=O)N[C@@H](CC)C(=O)N(C)[C@H](C)C(=O)N(C)[C@@H](CC(C)C)C(=O)N(C/C=C(\C)CN(C)C)[C@@H](C(C)C)C(=O)N(C)[C@@H](CC(C)C)C(=O)N[C@@H](C)C(=O)N[C@H](C)C(=O)N(C)[C@@H](CC(C)C)C(=O)N(C)[C@@H](CC(C)C)C(=O)N(C)[C@@H](C(C)C)C(=O)N1C [Compound 7, [(D)-MeAla]3-N-[trans-3-methyl-4-dimethylamino-but-2-enyl]-Val^5-cyclosporine A] (cyclo(A[dA][NMeL][NMeL][NMeV][MeBmt][Abu][dNMeA][NMeL][X2][NMeL]))	< 200
C/C=C/C[C@@H](C)[C@@H](O)[C@H]1C(=O)N[C@@H](CC)C(=O)N(C)[C@H](C)C(=O)N(C)[C@@H](CC(C)C)C(=O)N(CCCCO)[C@@H](C(C)C)C(=O)N(C)[C@@H](CC(C)C)C(=O)N[C@@H](C)C(=O)N[C@H](C)C(=O)N(C)[C@@H](CC(C)C)C(=O)N(C)[C@@H](CC(C)C)C(=O)N(C)[C@@H](C(C)C)C(=O)N1C [Compound 8, [(D)-MeAla]^3-N-[4-hydroxybutyl]-Val^5-cyclosporine A] (cyclo(A[dA][NMeL][NMeL][NMeV][MeBmt][Abu][dNMeA][NMeL][X7][NMeL]))	< 200
C/C=C/C[C@@H](C)[C@@H](O)[C@H]1C(=O)N[C@@H](CC)C(=O)N(C)[C@H](C)C(=O)N(C)[C@@H](CC(C)C)C(=O)N(CCCCN(C)C)[C@@H](C(C)C)C(=O)N(C)[C@@H](CC(C)C)C(=O)N[C@@H](C)C(=O)N[C@H](C)C(=O)N(C)[C@@H](CC(C)C)C(=O)N(C)[C@@H](CC(C)C)C(=O)N(C)[C@@H](C(C)C)C(=O)N1C [Compound 9, [(D)-MeAla]^3-N-[4-dimethylaminobutyl]-Val^5-cyclosporine A] (cyclo(A[dA][NMeL][NMeL][NMeV][MeBmt][Abu][dNMeA][NMeL][X3][NMeL]))	< 200
CCOC(=O)/C=C/C[C@@H](C)[C@@H](O)[C@H]1C(=O)N[C@@H](CC)C(=O)N(C)[C@H](C)C(=O)N(C)[C@@H](CC(C)C)C(=O)N(CC=C(C)C)[C@@H](C(C)C)C(=O)N(C)[C@@H](CC(C)C)C(=O)N[C@@H](C)C(=O)N[C@H](C)C(=O)N(C)[C@@H](CC(C)C)C(=O)N(C)[C@@H](CC(C)C)C(=O)N(C)[C@@H](C(C)C)C(=O)N1C [Compound 10, [(E)-7-ethoxycarbonyl]^1-[(D)-MeAla]^3-N-[trans-3-methylbut-2-enyl]-Val^5-cyclosporine A] (cyclo([X8][Abu][dNMeA][NMeL][X6][NMeL]A[dA][NMeL][NMeL][NMeV]))	< 200
